Assay [1] deals with T1, T7-RILP-L2 (pEF-T7-RILP-L2) (mouse) (UniProt Q99LE1).
T1 sequence (looked up): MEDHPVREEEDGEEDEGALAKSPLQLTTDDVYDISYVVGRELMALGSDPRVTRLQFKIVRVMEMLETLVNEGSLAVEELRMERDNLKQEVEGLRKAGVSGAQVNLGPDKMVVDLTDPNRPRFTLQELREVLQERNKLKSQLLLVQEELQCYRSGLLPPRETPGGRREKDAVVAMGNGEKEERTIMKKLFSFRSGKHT
Description: co-immunoprecipitation of GFP- and T7-tagged forms from RBL cell lysates.

For assay [2], the target named is T1, T7-RILP-L2 (pEF-T7-RILP-L2) (mouse). Briefly: co-immunoprecipitation from co-transfected RBL cell lysates, IP anti-GFP, blot anti-T7.
Assay [3] concerns the target T2, T7-RILP-L1 (pEF-T7-RILP-L1) (mouse, UniProt Q9JJC6 1-406).
T2 construct: The pEF-T7 plasmid was 'prepared as previously described'; also called T7-tagged RILP-L1; RILP-like 1
T2 sequence (looked up): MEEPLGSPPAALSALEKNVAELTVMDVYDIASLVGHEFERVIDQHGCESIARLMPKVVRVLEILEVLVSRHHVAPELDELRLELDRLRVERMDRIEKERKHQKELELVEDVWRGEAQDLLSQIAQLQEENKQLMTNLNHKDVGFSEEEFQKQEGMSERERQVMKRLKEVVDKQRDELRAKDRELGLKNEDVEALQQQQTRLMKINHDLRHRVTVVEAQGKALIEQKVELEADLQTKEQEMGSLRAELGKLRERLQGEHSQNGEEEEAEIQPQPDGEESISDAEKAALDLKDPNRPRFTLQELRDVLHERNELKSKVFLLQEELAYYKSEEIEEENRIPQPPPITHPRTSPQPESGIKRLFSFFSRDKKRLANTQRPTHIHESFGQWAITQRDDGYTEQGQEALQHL
Description: co-immunoprecipitation of GFP- and T7-tagged forms from RBL cell lysates.

For assay [4], the target named is T2, T7-RILP-L1 (pEF-T7-RILP-L1). Briefly: co-immunoprecipitation from co-transfected RBL cell lysates, IP anti-GFP, blot anti-T7. As for the experimental part:
FIGS. 1A, 1B show the results of immunoprecipitations in which cell lysates derived from the rat mast cell line RBL-2H3, herein referred to as RBL cells, that were co-transfected with 17.5 μg of pEGFP plasmid encoding either RILP, RILP-L1 or RILP-L2 and 17.5 μg of pEF plasmid encoding either T7-RILP, T7-RILP-L1 or T7-RILP-L2, as indicated, were subjected to immunoprecipitation with rabbit polyclonal antibodies directed against GFP. FIGS. 1C, 1D show the results of immunoprecipitations in which the RBL cell lysates described above were subjected to immunoprecipitation with mouse monoclonal antibodies directed against the T7 epitope. Immune complexes were then analyzed by SDS-PAGE and immunoblotting with mouse monoclonal anti T7 antibodies, followed by reprobing with polyclonal anti GFP antibodies (FIGS. 1A, 1B), or with polyclonal anti GFP antibodies followed by reprobing with monoclonal anti T7 antibodies (FIGS. 1C, 1D), as indicated. Input=10% of total protein.
RBL cell lysates (500 μg) prepared in buffer A (50 mM Hepes pH 7.4, 250 mM NaCl, 1 mM MgCl₂, 1% Triton X-100, protease inhibitor mixture, 1 mM PMSF, 2 mM Na₃VO₄) were incubated overnight at 4° C. with either rabbit polyclonal anti-GFP antibodies (2 μg) or mouse monoclonal anti-T7 antibodies (1 μg). […] Proteins were resolved by SDS-PAGE and analyzed by immunoblotting with the desired antibodies.

Results are given in words; binding and its absence hold for the method and conditions named. In cells and extracts the contact can be indirect. Some binding calls cover weakened binding; strength is not graded here. Sequences can lack the tags named with a protein.

B1: GFP-RILP-L2 (mouse RILP-like 2 in pEGFP-C1) (protein, UniProt Q99LE1 1-197, looked up, not shown: large carriers)
chain: T1 sequence (looked up)
Turning to B1, the binding entry in assay [1] and in assay [2] was “binds” throughout.

B2: GFP-RILP-L1 (mouse RILP-like 1 in pEGFP-C1) (protein, UniProt Q9JJC6 1-406, looked up, not shown: large carriers)
chain: T2 sequence (looked up)
Take B2: the binding entry in assay [3] and in assay [4] was “binds” in each case.
